Experimental data: paper PMC3986870
No constants are given. Whether binding was seen depends on the method and setting. Binding seen in cells or lysates may run through a third protein. Some results given as binding are weak or reduced against the parent protein; the word gives no strength.

Protein sequences, listed by entry. Tags and fused reporters are not part of them. Lines headed by an entry give the natural chain unless they say otherwise; changes in a name come on top. Residues count along the entry.
UniProt P10361: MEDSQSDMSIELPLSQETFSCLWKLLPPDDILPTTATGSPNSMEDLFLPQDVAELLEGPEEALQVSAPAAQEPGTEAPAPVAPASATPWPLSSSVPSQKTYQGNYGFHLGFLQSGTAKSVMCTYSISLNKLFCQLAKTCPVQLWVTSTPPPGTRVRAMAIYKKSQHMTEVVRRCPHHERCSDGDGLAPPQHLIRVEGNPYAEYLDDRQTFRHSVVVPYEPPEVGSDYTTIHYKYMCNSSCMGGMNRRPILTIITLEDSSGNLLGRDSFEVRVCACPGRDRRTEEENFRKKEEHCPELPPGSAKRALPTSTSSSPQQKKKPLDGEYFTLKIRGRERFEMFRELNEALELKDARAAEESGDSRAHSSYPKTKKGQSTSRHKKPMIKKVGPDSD
UniProt P04406: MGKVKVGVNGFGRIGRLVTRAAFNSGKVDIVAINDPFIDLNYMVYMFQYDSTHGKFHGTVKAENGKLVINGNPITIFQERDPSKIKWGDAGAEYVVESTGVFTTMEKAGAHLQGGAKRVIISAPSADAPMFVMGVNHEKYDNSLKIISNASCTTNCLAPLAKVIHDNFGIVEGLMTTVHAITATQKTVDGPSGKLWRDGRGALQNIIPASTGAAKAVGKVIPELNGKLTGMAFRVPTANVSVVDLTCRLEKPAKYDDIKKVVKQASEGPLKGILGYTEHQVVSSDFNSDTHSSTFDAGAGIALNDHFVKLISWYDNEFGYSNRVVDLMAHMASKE
GST-GAPDH2-2-1-1 (I221-E250): residues 221-250 of P04406
UniProt P04797: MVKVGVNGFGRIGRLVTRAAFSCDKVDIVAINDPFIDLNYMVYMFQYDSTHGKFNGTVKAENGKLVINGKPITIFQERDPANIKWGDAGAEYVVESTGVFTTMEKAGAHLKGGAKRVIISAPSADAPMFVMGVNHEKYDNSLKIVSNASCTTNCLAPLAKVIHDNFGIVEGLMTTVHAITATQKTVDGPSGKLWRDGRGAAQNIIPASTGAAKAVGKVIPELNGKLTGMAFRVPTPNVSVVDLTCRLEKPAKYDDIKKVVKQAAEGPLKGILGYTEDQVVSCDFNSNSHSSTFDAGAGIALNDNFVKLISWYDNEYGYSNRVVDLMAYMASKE

How the values were obtained:
[1] = biological target: p53, endogenous, rat brain nuclear extracts (rat (endogenous in hippocampus and cortex)) (UniProt P10361); assay: co-IP; p53 antibody (polyclonal, Abcam) with protein A/G agarose; solubilized nuclear proteins from rat hippocampal slices with/without glutamate treatment; Western blot for GAPDH
[2] = biological target: GST-GAPDH2-2-1-1 (I221-E250) (UniProt P04406); assay: pull-down; GST-fusion proteins (50 μg) on glutathione-sepharose beads incubated with solubilized nuclear extracts (800 μg protein) at room temperature for 1 hour; Western blot for p53; only the target purified
[3] = biological target: GST-fusion protein encoding GAPDH (GST-GAPDH) (UniProt P04406); assay: as above

binding [1] | binding [2] | binding [3] | Substance
binds | – | – | Glyceraldehyde 3-phosphate dehydrogenase (GAPDH), endogenous, rat brain nuclear extracts (from UniProt P04797 1-333)
– | binds | binds | p53, endogenous, rat brain nuclear extracts (from UniProt P10361 1-391)
